Tests used:
[1] = in vitro; details: human
[2] = tested on: caspase-8; experiment: qRT-PCR caspase-8 level; format: cell-based, human; details: HCT-116 cells, 72 h, versus untreated cells
[3] = tested on: caspase-3; experiment: qRT-PCR caspase-3 level; format: cell-based, human; details: HCT-116 cells, 72 h, versus untreated cells

Compound: CN[C@@H]1C[C@H]2O[C@@](C)([C@@H]1OC)n1c3ccccc3c3c4c(c5c6ccccc6n2c5c31)C(=O)NC4 [Staurosporine, reference compound]
- IC50 [1]: 51.5 ± 2.2 µM
- RT-PCR (Fold Change) Caspase-8 [2]: 3.4529 Fold Change
- RT-PCR (Fold Change) Caspase-3 [3]: 6.8073 Fold Change

Reference: paper PMC10384246, “Discovery of New Uracil and Thiouracil Derivatives as Potential HDAC Inhibitors” (Pharmaceuticals, 2023)
